From the supplement of paper PMC10735217
Structures can show the parent of a compound that is named as a salt. This is one part of the list. This data set is noisy: repeats of one test often differ as much as different tests do.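 The human kidney-derived cells carry a stably integrated construct of eight TEAD-binding elements driving luciferase, read by luminescence in a drug-repurposing library screen. A compound counts as a hit when its signal is more than five robust Z scores above the plate mean.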

Tested on: HEK293A TEAD-LUC reporter
Test: TEAD-luciferase reporter activity (YAP activation), robust Z score vs plate; higher = stronger YAP/TEAD activation
Conditions: 24 h

| SMILES | TEAD-luciferase reporter activity (compound concentration: 200 nM) | TEAD-luciferase reporter activity (compound concentration: 2 uM) | TEAD-luciferase reporter activity (compound concentration: 10 uM) |
| --- | --- | --- | --- |
| CS(=O)(=O)c1ccc(C2CC(C(F)(F)F)=NN2c2ccc(F)cc2)cc1 (configuration not stated) | inactive: -0.745 | inactive: -0.143 | inactive: -0.239 |
| O=C(/C=C1\NC(=O)CS1)Nc1ccccc1Cl | inactive: 0.573 | inactive: -0.813 | inactive: -1.13 |
| NS(=O)(=O)c1ccc(Oc2ccc(NC(=O)N[C@@H]3[C@@H]4COc5c(F)ccc(F)c5[C@@H]43)nc2)cc1 | inactive: -0.804 | inactive: -0.27 | inactive: 2 |
| COCCN(C)CCOc1ccc2[nH]c(-c3cc4ccccc4[nH]c3=O)cc2c1 | inactive: -0.488 | inactive: 2.53 | inactive: 0.405 |
| C/C(=N\NC(=O)c1cccc(S(=O)(=O)N2CCN(C)CC2)c1)c1cc(Cl)ccc1O [Seclidemstat] | inactive: -0.122 | – | inactive: -0.647 |
| CCCN(CC1CC1)c1nc(C)nc(Nc2c(Cl)cc(Cl)cc2Cl)c1Cl | inactive: -2.43 | inactive: -0.116 | inactive: -1.61 |
| NCCCCCC(O)(P(=O)(O)O)P(=O)(O)O [neridronic acid] | inactive: -0.971 | – | inactive: 0.982 |
| NC(=O)c1c(NC(=O)Nc2ccc3c(c2)OCO3)sc2c(Cl)c(O)ccc12 | inactive: -0.238 | inactive: 0.439 | inactive: -0.319 |
| O=C(O)CN1C(=O)C(=O)N(Cc2cccc([N+](=O)[O-])c2)C1=O | inactive: -1.17 | inactive: -0.635 | inactive: -0.898 |
| CCCNS(=O)(=O)Nc1ncnc(OCCOc2ncc(Br)cn2)c1-c1ccc(Br)cc1 [Macitentan] | inactive: -1.16 | inactive: 0.0497 | inactive: -0.488 |
| O=C(c1n[nH]c2ccccc12)N1CCCN(Cc2ccccc2)CC1 | inactive: -0.891 | inactive: -0.934 | inactive: -0.0753 |
| Cn1c(=O)n(CCCCC(C)(C)O)c(=O)c2[nH]cnc21 | inactive: -0.961 | inactive: 0.0695 | inactive: -2.38 |
| CCCSc1nc(N2CCC[C@@H](CC(=O)O)C2)ccc1C(=O)NC1CCCCC1 | inactive: 0.983 | inactive: -0.119 | inactive: -1.85 |
| O=C(NO)c1cnc(N2CCN(S(=O)(=O)c3ccc4ccccc4c3)CC2)nc1 | active: 33.4 | active: 113 | active: 66.8 |
| OCC(S)CS (configuration not stated) [Dimercaprol] | inactive: 1.11 | inactive: 0.359 | inactive: -0.522 |
| COc1ccc(CN2CCC3(CC2)NC(=O)c2ccccc2O3)cc1 | active: 8.1 | – | inactive: 1.63 |
| CC1(COc2ccc3c(c2)ncn3-c2ccc3cccc(N4CCC(N)CC4)c3n2)COC1 [crenolanib] | – | inactive: 2.47 | – |
| CC1(COc2ccc3c(c2)ncn3-c2ccc3cccc(N4CCC(N)CC4)c3n2)COC1 | inactive: -1.7 | – | active: 8.38 |
| OC(c1ccccc1)(c1ccccc1)C12CC[N+](CCOCc3ccccc3)(CC1)CC2 [Umeclidinium bromide] | inactive: -1.51 | inactive: 0.687 | inactive: 2 |

| SMILES | TEAD-luciferase reporter activity (compound concentration: 200 nM) | TEAD-luciferase reporter activity (compound concentration: 2 uM) | TEAD-luciferase reporter activity (compound concentration: 10 uM) |
| --- | --- | --- | --- |
| OC(c1ccccc1)(c1ccccc1)C12CC[N+](CCOCc3ccccc3)(CC1)CC2 | – | inactive: 2.45 | – |
| Oc1nc2cc(Cl)ccc2c(O)c1-c1cccc(Oc2ccccc2)c1 | inactive: -0.635 | inactive: 1.05 | inactive: 0.411 |
| N#Cc1cc(NC(=O)C(=O)O)c(Cl)c(NC(=O)C(=O)O)c1 [Lodoxamide] | inactive: 0.249 | inactive: -1.5 | inactive: -0.609 |
| COc1cc(/C=C/C(=O)N2CCN(CC(=O)N3CCCC3)CC2)cc(OC)c1OC [cinepazide maleate] | inactive: -0.218 | inactive: -1.34 | inactive: -1.1 |
| CCCn1cnc2c1c(=O)n(CCCCC(C)=O)c(=O)n2C | inactive: 0.452 | inactive: -0.933 | inactive: -1.36 |
| Cc1c(N(C)C)c(=O)n(-c2ccccc2)n1C | inactive: -1.36 | inactive: 1.39 | inactive: -1.21 |
| CC(C)(C)c1ccc(CN2CCN(C(c3ccccc3)c3ccc(Cl)cc3)CC2)cc1 (configuration not stated) [Buclizine hydrochloride] | inactive: -2.28 | inactive: -0.272 | inactive: -1.68 |
| CC(=O)Oc1ccccc1C(=O)O [Aspirin] | – | inactive: -1.6 | – |
| CC(=O)Oc1ccccc1C(=O)O | inactive: -1.16 | – | inactive: -0.0862 |
| CCCCc1cc2ccccc2c(OCCN(C)C)n1 | inactive: 0.736 | active: 9.03 | active: 8.36 |
| O=C1CCN(c2ccccc2)c2cc(Cl)ccc2N1 [analog of Lofendazam] | inactive: -0.678 | inactive: -1.93 | inactive: -0.693 |
| O=C(NO)C1(NS(=O)(=O)c2ccc(Oc3ccc(Cl)cc3)cc2)CCOCC1 | inactive: 0.0451 | inactive: 1.1 | inactive: 0.3 |
| CCOC(=O)[C@@H](N)Cc1ccc(O)c(O)c1 [Etilevodopa] | inactive: -1.86 | inactive: 2.33 | inactive: 0.504 |
| CO/N=C(\C(=O)N[C@@H]1C(=O)N2C(C(=O)[O-])=CCS[C@H]12)c1csc(N)n1 [Ceftizoxime (sodium)] | inactive: -1.42 | inactive: -0.24 | inactive: 0.69 |
| CN1CCN2c3c(cccc31)[C@@H]1CN(CCCC(=O)c3ccc(F)cc3)CC[C@@H]12 | active: 6.89 | inactive: 1.41 | inactive: 0.18 |
| CN(Cc1ccccc1)C(=O)[C@@H](NC(=O)c1cc2cc(NC(=O)c3ccccc3-c3ccc(C(F)(F)F)cc3)ccc2n1C)c1ccccc1 | inactive: -0.699 | inactive: 0.111 | inactive: -1.32 |
| CCc1nc2c(N)nc3ccccc3c2n1CCCCNS(C)(=O)=O | inactive: -1.09 | inactive: 0.277 | inactive: 0.428 |
| CC(C)C(=O)N1Cc2ccccc2CC2(CCCN2C)C1 (configuration not stated) | inactive: -1.25 | – | inactive: 1.57 |
| Cc1ccsc1-c1ccc(C(C)C(=O)O)cc1 (configuration not stated) | inactive: -0.345 | inactive: -0.806 | inactive: 0.978 |

Full records, quoted from the list:
CN1CCN2c3c(cccc31)[C@@H]1CN(CCCC(=O)c3ccc(F)cc3)CC[C@@H]12 is listed as TEAD-luciferase reporter activity (compound concentration: 200 nM): active: 6.89; TEAD-luciferase reporter activity (compound concentration: 2 uM): inactive: 1.41; TEAD-luciferase reporter activity (compound concentration: 10 uM): inactive: 0.18
CC(=O)Oc1ccccc1C(=O)O is listed as TEAD-luciferase reporter activity (compound concentration: 200 nM): inactive: -1.16; TEAD-luciferase reporter activity (compound concentration: 10 uM): inactive: -0.0862
Oc1nc2cc(Cl)ccc2c(O)c1-c1cccc(Oc2ccccc2)c1 is listed as TEAD-luciferase reporter activity (compound concentration: 200 nM): inactive: -0.635; TEAD-luciferase reporter activity (compound concentration: 2 uM): inactive: 1.05; TEAD-luciferase reporter activity (compound concentration: 10 uM): inactive: 0.411
CCCN(CC1CC1)c1nc(C)nc(Nc2c(Cl)cc(Cl)cc2Cl)c1Cl is listed as TEAD-luciferase reporter activity (compound concentration: 200 nM): inactive: -2.43; TEAD-luciferase reporter activity (compound concentration: 2 uM): inactive: -0.116; TEAD-luciferase reporter activity (compound concentration: 10 uM): inactive: -1.61

(list continues)

| SMILES | TEAD-luciferase reporter activity (compound concentration: 200 nM) | TEAD-luciferase reporter activity (compound concentration: 2 uM) | TEAD-luciferase reporter activity (compound concentration: 10 uM) |
| --- | --- | --- | --- |
| Cc1c(CN2CCN(C(=O)[C@H](C)O)CC2)sc2c(N3CCOCC3)nc(-c3cnc(N)nc3)nc12 [apitolisib] | inactive: -0.217 | inactive: -2.45 | inactive: 1.97 |
| CC1=C\[C@@H](O)CC(=O)Cc2nc(co2)C(=O)N2CCC=C2C(=O)O[C@H](C(C)C)[C@H](C)/C=C/C(=O)NC/C=C\1 [Pristinamycin IIA] | inactive: -1.19 | inactive: -1.15 | inactive: 2.34 |
| CCO[C@@H]1OC(=O)C[C@@H]1NC(=O)[C@@H]1CCCN1C(=O)[C@@H](NC(=O)c1ccc(N)c(Cl)c1)C(C)(C)C [Belnacasan] | inactive: -1.61 | inactive: -1.22 | inactive: 0.962 |
| CC(C)C[C@H]1[C@H](c2ccccc2)OC(=O)N1CCCN1CCCCCC1 [Ipenoxazone] | inactive: -2.08 | inactive: -0.832 | inactive: -0.103 |
| CCC(=O)[C@@]1(C)CC[C@H]2[C@@H]3CCC4=CC(=O)CCC4=C3CC[C@@]21C [promegestone] | inactive: -2.86 | inactive: -1.56 | active: 5.8 |
| Cc1ccccc1-c1nc(N2CCN(C)CC2)ncc1N(C)C(=O)C(C)(C)c1cc(C(F)(F)F)cc(C(F)(F)F)c1 | inactive: -0.63 | inactive: 2.45 | inactive: 0.673 |
| CCCC(=O)N1Cc2ccccc2CC2(CCCCN2CC2CCOCC2)C1 (configuration not stated) | inactive: -1.17 | – | inactive: 2.38 |
| C[C@H](NCc1ccc(OCc2ccccc2F)cc1)C(N)=O | inactive: -0.635 | – | inactive: 4.47 |
| C[C@H](NCc1ccc(OCc2ccccc2F)cc1)C(N)=O [ralfinamide] | – | inactive: 0.247 | – |
| CC(C)CNCCCC(O)(c1ccccc1)c1ccccc1 | inactive: 0.277 | inactive: -0.0501 | inactive: 0.0606 |
| CNC(=O)[C@H](C/C=C/c1ccc(N(C)c2ncccn2)cc1)NC(=O)Cc1ccccc1 | inactive: -0.0827 | inactive: -0.315 | inactive: -0.168 |
| COc1ccccc1Oc1cnc(-c2ncccn2)nc1NS(=O)(=O)/C=C/c1ccccc1 | inactive: -0.391 | inactive: -1.94 | inactive: -2.62 |
| CS(=O)(=O)CCNCc1ccc(-c2ccc3ncnc(Nc4ccc(OCc5cccc(F)c5)c(Cl)c4)c3c2)o1 [lapatinib ditosylate] | inactive: -0.445 | – | inactive: 0.0458 |
| CS(=O)(=O)CCNCc1ccc(-c2ccc3ncnc(Nc4ccc(OCc5cccc(F)c5)c(Cl)c4)c3c2)o1 [lapatinib] | – | inactive: -1.45 | – |
| Cc1c(C)c2c(c(C)c1OP(=O)([O-])OC1=C(O)[C@@H]([C@@H](O)CO)OC1=O)CCC(C)(CCCC(C)CCCC(C)CCCC(C)C)O2 (some centres not stated) | inactive: -1.13 | inactive: -0.474 | inactive: -0.0307 |
| COc1ccc(CCNCC(O)COc2ccc(Cl)cc2Cl)cc1OC (configuration not stated) | inactive: -1.22 | inactive: -0.885 | inactive: -1.61 |
| NC[C@H]1O[C@@H](n2nc(Br)c3c(N)ncnc32)[C@H](O)[C@@H]1O | inactive: -0.467 | inactive: -0.491 | inactive: -0.756 |
| CCS(=O)(=O)c1ccc(Oc2cc(O[C@@H](C)CO)cc(C(=O)Nc3ccn(C)n3)c2)cn1 | inactive: -0.536 | inactive: -0.936 | inactive: -0.134 |
| COc1ccc(C2NC(=O)C(C)S2)cc1OC (configuration not stated) [mezolidon] | inactive: 4.23 | inactive: 0.87 | inactive: -0.417 |
